Positions count from the first letter of the chain named. In names and notes the source's numbering stands. These are yes or no findings as the source states them, for the method shown. In cells and extracts the contact can be indirect. Some results given as binding are weak or reduced against the parent protein; the word gives no strength. Tags and fused reporters may be left off the sequences shown. One block for each binder: values may come before it.
Legend:
Test in all cases: co-IP
[1] = molecular target: T1, 3xHA-C21ORF2 T150I (human) (UniProt O43822)
T1 sequence: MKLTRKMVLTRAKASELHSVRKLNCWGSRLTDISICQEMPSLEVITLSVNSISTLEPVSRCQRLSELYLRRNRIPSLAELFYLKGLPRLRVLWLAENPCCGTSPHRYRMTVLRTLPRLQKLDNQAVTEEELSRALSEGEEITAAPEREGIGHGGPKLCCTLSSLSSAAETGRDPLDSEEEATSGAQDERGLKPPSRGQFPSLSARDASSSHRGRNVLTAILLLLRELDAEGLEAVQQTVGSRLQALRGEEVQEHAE

[2] = molecular target: T2, 3xHA-C21ORF2 L224P (human) (UniProt O43822)
T2 sequence: T1 sequence with I150T, L224P

[3] = molecular target: T3, GFP-C21ORF2 (human) (UniProt O43822)
T3 sequence: T1 sequence with I150T

[4] = molecular target: T4, 3xHA-C21ORF2 R73P (human) (UniProt O43822)
T4 sequence: T1 sequence with R73P, I150T

[5] = molecular target: T5, 3xHA-C21ORF2 wild type (human) (UniProt O43822)
T5 sequence: T1 sequence with I150T

[6] = molecular target: T6, 3xFLAG-NEK1 full length (1-1286) (human) (UniProt Q96PY6)
T6 sequence: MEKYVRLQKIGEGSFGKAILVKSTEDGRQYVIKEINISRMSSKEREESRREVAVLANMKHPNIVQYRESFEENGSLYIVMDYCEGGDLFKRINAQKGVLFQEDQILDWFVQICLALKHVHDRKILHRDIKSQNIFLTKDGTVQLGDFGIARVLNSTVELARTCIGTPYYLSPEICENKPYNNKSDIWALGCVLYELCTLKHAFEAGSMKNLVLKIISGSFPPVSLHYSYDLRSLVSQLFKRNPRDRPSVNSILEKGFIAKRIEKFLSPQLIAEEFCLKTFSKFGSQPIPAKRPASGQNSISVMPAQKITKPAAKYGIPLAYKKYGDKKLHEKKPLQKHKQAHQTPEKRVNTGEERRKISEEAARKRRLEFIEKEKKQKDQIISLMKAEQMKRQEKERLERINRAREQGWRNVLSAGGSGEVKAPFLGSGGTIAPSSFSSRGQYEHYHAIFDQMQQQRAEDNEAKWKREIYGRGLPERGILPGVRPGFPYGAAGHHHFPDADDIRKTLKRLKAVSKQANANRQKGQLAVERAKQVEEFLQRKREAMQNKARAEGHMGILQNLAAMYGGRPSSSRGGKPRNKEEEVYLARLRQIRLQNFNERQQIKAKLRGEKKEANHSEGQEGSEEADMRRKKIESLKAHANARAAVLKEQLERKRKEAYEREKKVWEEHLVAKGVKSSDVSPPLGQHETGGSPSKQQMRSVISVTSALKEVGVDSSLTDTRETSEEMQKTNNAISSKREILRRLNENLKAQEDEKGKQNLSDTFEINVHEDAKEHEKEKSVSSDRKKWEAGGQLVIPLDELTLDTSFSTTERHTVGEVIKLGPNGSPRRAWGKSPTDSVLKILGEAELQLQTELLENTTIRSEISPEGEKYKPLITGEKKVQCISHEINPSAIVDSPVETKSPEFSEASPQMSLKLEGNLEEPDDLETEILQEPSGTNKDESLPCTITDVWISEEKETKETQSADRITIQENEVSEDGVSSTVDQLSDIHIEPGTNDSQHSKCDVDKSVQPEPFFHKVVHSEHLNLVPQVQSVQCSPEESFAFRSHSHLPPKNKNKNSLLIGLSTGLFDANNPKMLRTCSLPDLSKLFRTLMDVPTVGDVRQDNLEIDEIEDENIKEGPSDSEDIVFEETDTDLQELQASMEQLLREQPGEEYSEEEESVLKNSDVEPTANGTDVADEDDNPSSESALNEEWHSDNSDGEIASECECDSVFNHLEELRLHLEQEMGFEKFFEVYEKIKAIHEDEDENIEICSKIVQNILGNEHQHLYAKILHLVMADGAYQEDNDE

B2: 3xFLAG-NEK1 R261H (enzyme, UniProt Q96PY6-3 1-1286)
chain: T6 sequence with R261H
binding [5]: binds

B3: 3xHA-C21ORF2 R73P (protein, UniProt O43822-1 1-256)
chain: T1 sequence with R73P, I150T
binding [6]: binds

B5: 3xHA-C21ORF2 L224P (protein, UniProt O43822-1 1-256)
chain: T1 sequence with I150T, L224P
binding [6]: binds

The next lines start with the values.

binding [1]: binds
binding [2]: binds
binding [3]: binds
binding [4]: binds
binding [5]: binds
B1: 3xFLAG-NEK1 full length (1-1286) (enzyme, UniProt Q96PY6-3 1-1286)
chain: T6 sequence

binding [6]: binds
B4: 3xHA-C21ORF2 T150I (protein, UniProt O43822-1 1-256)
chain: T1 sequence

binding [3]: binds
B6: 3xFLAG-NEK1 aa 760-1286 (C-terminal acidic domain) (domain or fragment, UniProt Q96PY6-3 760-1286)
chain: LSDTFEINVHEDAKEHEKEKSVSSDRKKWEAGGQLVIPLDELTLDTSFSTTERHTVGEVIKLGPNGSPRRAWGKSPTDSVLKILGEAELQLQTELLENTTIRSEISPEGEKYKPLITGEKKVQCISHEINPSAIVDSPVETKSPEFSEASPQMSLKLEGNLEEPDDLETEILQEPSGTNKDESLPCTITDVWISEEKETKETQSADRITIQENEVSEDGVSSTVDQLSDIHIEPGTNDSQHSKCDVDKSVQPEPFFHKVVHSEHLNLVPQVQSVQCSPEESFAFRSHSHLPPKNKNKNSLLIGLSTGLFDANNPKMLRTCSLPDLSKLFRTLMDVPTVGDVRQDNLEIDEIEDENIKEGPSDSEDIVFEETDTDLQELQASMEQLLREQPGEEYSEEEESVLKNSDVEPTANGTDVADEDDNPSSESALNEEWHSDNSDGEIASECECDSVFNHLEELRLHLEQEMGFEKFFEVYEKIKAIHEDEDENIEICSKIVQNILGNEHQHLYAKILHLVMADGAYQEDNDE

— article doi:10.1101/2022.08.31.505651
